Values of other authors as cited in patent US4510149A, “N-Imidazolyl derivatives containing naphthalene or indene nucleus” (Farmitalia Carlo Erba S.p.A., priority 1982, dated 1985).
At least one compound was matched to its structure with a doubt left.

System: thromboxane A2 (TXA2) synthetase
Conditions: literature / prior filings; cited from earlier work

| SMILES | inhibition of TxA2 synthetase |
| --- | --- |
| COc1ccc2c(c1)CCC(Cn1ccnc1)=C2 [1,2-dihydro-3-(1-imidazolylmethyl)-7-methoxy-naphthalene] | very active |
| C1=C(Cn2ccnc2)CCc2ccccc21 [1,2-dihydro-3-(1-imidazolylmethyl)-naphthalene] | very active |
